This test addresses GFP-tagged WWP2 (human) (UniProt O00308). The test can be described thus: co-IP; GFP pull-down under physiological conditions: lysate in EBC buffer (50 mM Tris pH 7.5, 150 mM NaCl, 0.5% NP-40, 2.5 mM MgCl2) with benzonase, GFP-Trap-A beads 2 h or overnight at 4°C, washes with 250 mM NaCl, Western blot.

Protein sequences, listed by entry. Tags and fused reporters are not part of them.
UniProt O00308: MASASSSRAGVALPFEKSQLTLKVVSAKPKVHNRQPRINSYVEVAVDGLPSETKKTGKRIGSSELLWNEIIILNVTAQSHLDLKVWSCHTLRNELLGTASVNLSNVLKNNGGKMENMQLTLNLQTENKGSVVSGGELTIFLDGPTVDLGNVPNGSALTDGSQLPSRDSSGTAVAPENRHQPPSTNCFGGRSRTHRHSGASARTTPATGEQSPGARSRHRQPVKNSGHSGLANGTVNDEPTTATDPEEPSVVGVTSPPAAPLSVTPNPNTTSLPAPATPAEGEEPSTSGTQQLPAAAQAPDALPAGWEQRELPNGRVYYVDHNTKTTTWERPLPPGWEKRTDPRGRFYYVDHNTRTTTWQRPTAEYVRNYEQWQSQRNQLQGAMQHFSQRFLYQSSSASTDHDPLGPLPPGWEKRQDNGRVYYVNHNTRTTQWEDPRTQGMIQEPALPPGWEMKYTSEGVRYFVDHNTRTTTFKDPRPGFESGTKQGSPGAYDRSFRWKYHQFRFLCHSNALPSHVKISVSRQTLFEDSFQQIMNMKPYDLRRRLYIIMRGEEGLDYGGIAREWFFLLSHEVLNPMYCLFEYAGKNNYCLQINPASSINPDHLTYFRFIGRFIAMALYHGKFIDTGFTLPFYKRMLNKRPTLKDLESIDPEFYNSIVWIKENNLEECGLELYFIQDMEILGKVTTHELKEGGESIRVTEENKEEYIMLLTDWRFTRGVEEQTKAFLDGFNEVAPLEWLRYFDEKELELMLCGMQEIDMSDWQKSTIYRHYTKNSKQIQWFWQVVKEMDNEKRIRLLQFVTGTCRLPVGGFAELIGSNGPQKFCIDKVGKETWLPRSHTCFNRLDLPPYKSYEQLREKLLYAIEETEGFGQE
UniProt P13010: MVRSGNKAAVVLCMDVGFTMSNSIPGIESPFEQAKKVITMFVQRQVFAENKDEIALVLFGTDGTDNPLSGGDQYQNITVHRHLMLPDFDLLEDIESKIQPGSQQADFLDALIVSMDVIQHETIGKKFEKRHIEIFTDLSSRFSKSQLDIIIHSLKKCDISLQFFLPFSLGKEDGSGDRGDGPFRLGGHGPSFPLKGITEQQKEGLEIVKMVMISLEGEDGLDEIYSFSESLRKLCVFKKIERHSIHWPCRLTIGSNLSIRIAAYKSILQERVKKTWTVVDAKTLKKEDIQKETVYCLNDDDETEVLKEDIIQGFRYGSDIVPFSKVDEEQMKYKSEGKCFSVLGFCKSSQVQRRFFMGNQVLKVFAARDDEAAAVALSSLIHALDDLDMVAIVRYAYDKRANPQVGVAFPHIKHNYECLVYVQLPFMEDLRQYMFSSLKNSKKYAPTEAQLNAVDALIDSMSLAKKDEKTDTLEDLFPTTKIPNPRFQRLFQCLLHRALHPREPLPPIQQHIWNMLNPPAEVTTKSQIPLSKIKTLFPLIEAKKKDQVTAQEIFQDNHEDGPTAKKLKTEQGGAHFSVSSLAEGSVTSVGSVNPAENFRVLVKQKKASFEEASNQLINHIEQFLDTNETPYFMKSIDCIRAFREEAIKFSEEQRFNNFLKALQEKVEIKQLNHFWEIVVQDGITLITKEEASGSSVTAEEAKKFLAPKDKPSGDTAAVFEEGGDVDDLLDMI

These are yes or no findings as the source states them, for the method shown. Binding seen in cells or lysates may run through a third protein. Some results given as binding are weak or reduced against the parent protein; the word gives no strength.

Drawing on PMC6546063, this text covers binding for one substance.

Turning to “Ku80 (endogenous) (from UniProt P13010 1-732)”, the binding result was “binds”.
